± gives the standard deviation of the averaged measurements. This is a selection; strong and weak results do not stand in their true shares. Most values lie at the level of the controls, where differences are scatter.
Compound: Nc1ncnc2c1ncn2[C@@H]1O[C@H](COP(=O)(O)OP(=O)(O)OP(=O)(O)O)[C@@H](O)[C@H]1O [adenosine triphosphate]
Experiment: NP40-soluble protein abundance relative to vehicle (solubility fold change) (ratio); higher = more soluble protein in presence of ATP
Summary of the method: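 Jurkat crude lysate prepared with a Dounce homogeniser was treated at eight concentrations spanning 0.1 to 10 mM, 10 min at room temperature then 3 min at 37 °C. Solubilisation with 0.8% NP40 and benzonase and ultracentrifugation preceded TMT labelling of the supernatant for LC-MS/MS. Fold change against the detergent-processed vehicle was determined per replicate from vsn-normalised intensities, across three independent experiments.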

Protein sequences, listed by entry. Tags and fused reporters are not part of them. Lines headed by an entry give the natural chain unless they say otherwise; changes in a name come on top.
UniProt O14530: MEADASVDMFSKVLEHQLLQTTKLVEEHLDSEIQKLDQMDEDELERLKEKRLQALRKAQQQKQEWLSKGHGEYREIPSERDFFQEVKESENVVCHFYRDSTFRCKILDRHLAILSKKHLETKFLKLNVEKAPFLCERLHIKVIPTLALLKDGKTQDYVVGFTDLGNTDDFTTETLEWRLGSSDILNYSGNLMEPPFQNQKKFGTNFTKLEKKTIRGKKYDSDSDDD
UniProt O43148, whole entry: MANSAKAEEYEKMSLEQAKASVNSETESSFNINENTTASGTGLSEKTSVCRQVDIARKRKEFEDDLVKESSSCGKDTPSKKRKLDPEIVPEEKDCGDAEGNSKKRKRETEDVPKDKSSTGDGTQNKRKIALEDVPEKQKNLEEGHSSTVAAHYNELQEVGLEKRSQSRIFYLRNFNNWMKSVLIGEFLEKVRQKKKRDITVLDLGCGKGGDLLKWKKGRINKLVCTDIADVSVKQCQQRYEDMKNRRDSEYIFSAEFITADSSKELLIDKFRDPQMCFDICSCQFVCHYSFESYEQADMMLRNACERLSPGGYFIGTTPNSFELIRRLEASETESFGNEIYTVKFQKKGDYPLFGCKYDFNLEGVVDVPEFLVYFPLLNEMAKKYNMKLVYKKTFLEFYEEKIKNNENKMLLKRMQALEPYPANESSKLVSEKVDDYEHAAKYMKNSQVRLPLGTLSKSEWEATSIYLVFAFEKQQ
UniProt O14975, whole entry, looked up: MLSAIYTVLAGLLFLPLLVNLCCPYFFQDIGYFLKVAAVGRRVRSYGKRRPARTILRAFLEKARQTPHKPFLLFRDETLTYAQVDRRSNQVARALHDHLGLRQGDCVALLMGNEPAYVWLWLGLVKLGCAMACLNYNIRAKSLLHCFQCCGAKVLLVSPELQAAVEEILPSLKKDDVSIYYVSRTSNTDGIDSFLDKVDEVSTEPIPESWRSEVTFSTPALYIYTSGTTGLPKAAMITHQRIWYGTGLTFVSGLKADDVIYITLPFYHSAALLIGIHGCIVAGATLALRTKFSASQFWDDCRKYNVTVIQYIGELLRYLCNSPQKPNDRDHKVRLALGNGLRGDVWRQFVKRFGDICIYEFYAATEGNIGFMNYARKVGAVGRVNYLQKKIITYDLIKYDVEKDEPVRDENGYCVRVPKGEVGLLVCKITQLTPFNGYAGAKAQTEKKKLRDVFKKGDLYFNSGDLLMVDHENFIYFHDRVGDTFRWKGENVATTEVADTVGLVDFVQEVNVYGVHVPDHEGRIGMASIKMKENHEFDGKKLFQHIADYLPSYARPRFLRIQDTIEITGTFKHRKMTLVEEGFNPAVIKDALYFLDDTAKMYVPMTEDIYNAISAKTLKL
UniProt O15294: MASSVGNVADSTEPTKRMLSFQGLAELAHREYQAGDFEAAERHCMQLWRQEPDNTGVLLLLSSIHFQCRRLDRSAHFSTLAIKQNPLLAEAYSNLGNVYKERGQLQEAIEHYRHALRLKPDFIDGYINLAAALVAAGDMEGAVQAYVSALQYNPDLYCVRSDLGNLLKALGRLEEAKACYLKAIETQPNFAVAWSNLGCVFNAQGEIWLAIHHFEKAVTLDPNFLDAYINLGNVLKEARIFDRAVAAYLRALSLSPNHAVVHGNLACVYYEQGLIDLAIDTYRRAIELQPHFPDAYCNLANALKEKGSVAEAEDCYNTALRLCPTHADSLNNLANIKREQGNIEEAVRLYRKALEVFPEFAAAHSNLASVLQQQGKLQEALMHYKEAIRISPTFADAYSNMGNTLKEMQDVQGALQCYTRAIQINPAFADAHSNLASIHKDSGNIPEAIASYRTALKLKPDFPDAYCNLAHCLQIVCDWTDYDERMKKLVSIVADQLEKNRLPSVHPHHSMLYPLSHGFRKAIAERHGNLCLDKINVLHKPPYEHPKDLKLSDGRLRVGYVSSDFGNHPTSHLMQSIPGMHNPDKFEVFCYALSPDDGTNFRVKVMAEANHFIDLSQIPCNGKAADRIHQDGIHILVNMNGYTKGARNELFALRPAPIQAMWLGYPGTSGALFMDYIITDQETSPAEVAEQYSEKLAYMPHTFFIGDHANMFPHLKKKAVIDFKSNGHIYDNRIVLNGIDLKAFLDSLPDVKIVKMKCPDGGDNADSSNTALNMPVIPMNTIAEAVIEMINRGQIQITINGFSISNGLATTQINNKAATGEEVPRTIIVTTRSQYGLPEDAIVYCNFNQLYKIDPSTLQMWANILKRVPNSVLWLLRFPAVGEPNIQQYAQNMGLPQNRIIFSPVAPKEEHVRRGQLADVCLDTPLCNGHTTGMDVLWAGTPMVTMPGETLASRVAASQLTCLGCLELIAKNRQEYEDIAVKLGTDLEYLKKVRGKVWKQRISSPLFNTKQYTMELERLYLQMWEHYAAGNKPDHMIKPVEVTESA
UniProt O15498: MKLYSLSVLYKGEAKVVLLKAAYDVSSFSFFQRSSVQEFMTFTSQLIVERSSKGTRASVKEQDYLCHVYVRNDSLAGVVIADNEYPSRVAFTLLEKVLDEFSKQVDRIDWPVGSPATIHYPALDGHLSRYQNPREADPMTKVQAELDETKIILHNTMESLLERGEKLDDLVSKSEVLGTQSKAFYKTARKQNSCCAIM
UniProt O43752: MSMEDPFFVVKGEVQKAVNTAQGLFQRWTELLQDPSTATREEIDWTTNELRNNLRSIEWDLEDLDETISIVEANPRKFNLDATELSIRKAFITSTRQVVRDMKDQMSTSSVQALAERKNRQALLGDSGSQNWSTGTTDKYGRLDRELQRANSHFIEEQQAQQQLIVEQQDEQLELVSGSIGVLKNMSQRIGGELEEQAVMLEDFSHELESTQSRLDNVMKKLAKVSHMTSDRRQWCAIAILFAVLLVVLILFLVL
UniProt O60264, whole entry: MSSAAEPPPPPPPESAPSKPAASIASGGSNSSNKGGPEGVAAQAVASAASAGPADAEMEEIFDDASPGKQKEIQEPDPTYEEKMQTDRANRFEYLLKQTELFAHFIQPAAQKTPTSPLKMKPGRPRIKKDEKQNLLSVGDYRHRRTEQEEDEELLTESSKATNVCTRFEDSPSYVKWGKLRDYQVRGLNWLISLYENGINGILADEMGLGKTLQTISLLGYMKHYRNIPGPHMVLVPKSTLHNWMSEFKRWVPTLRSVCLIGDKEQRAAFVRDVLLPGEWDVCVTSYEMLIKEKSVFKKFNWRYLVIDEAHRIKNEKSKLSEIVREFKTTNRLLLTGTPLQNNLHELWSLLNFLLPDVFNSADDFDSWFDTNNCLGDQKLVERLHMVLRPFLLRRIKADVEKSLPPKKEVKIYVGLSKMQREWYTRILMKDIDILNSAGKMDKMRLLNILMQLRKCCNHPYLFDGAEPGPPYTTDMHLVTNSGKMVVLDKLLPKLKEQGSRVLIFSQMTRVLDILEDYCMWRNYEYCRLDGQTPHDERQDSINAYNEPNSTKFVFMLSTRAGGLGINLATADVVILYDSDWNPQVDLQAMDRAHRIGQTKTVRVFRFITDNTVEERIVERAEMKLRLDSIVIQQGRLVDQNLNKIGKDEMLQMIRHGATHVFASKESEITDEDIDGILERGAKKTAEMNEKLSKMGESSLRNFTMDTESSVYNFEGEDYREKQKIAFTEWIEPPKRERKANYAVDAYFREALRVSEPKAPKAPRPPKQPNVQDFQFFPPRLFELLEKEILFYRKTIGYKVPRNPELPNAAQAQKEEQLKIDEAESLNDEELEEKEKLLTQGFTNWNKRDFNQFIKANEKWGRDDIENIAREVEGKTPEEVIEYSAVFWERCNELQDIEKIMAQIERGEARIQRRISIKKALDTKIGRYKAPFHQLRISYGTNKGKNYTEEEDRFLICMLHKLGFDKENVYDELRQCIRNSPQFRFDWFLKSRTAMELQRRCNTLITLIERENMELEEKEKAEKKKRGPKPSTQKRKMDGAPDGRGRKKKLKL
UniProt O60239: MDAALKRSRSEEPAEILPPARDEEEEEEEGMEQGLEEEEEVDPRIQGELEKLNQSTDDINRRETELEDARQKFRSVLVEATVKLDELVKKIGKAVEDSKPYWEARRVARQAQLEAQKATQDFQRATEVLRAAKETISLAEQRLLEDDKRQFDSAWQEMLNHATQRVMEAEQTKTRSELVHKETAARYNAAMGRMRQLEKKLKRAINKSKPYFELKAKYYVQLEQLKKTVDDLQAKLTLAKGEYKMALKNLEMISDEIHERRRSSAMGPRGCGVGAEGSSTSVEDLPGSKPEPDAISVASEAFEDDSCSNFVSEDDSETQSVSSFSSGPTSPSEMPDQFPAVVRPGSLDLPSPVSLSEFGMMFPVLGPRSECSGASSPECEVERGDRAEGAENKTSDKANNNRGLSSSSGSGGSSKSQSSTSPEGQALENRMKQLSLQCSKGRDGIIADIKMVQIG
UniProt O00459, whole entry: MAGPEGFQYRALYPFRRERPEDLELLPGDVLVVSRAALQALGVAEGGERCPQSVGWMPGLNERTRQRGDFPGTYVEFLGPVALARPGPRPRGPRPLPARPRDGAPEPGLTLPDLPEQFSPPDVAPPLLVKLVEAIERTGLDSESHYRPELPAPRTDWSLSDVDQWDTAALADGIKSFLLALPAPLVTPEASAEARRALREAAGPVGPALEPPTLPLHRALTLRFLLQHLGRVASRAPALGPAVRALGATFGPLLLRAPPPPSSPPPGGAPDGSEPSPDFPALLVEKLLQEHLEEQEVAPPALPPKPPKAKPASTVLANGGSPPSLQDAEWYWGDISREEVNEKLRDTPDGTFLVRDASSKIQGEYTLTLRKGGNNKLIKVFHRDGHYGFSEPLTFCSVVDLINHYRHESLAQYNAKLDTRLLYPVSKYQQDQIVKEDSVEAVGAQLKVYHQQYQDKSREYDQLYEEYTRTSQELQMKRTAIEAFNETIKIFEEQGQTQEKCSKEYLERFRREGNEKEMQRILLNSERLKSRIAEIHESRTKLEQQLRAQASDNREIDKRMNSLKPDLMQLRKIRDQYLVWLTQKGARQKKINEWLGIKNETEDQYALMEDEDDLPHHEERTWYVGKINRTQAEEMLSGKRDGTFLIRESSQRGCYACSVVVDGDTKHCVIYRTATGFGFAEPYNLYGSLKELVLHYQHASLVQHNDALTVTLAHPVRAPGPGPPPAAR
UniProt O14657: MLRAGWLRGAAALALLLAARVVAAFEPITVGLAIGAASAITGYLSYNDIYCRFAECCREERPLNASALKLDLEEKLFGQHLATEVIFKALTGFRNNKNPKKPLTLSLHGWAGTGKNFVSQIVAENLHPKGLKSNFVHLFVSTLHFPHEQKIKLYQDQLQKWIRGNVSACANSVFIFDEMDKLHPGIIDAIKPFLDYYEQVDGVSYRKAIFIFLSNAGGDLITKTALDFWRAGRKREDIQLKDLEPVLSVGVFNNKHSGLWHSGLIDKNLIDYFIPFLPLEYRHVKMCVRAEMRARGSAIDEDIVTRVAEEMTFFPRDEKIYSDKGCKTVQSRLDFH
UniProt O43823: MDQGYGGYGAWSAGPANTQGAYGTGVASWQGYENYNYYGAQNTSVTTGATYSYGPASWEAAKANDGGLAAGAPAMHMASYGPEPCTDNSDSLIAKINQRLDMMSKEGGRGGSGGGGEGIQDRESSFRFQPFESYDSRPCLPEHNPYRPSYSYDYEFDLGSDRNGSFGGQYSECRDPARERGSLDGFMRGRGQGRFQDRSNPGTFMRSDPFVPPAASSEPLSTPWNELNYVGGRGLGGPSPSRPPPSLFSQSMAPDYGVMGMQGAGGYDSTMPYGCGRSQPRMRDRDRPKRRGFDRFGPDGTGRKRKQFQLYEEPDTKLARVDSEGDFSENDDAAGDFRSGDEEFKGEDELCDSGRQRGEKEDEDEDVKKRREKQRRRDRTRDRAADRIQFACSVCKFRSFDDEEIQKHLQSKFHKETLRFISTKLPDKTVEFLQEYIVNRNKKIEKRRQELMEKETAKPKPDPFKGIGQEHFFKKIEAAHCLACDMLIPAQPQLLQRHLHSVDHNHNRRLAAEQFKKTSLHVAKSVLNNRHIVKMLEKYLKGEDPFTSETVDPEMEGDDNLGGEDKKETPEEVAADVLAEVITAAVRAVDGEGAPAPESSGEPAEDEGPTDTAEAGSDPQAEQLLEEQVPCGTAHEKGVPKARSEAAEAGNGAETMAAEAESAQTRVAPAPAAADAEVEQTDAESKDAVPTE
UniProt O00422: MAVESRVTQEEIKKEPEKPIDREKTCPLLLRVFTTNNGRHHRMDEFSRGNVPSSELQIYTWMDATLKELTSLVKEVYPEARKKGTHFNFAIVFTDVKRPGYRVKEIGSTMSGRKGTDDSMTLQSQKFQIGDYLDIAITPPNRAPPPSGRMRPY
UniProt Q5UCC4: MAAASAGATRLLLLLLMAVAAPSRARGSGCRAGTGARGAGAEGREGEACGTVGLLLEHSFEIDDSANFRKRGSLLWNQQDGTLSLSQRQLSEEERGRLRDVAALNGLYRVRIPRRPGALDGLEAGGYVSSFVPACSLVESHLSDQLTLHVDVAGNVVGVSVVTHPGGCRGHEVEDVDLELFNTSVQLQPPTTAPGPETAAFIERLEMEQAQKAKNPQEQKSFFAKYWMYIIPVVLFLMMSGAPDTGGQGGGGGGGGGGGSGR

Target	NP40-soluble protein abundance (concentration: 0.1mM)	NP40-soluble protein abundance (concentration: 0.5mM)
UniProt O15260 and related entries	1.04 ± 0.083	0.954 ± 0.082
UniProt O43561-3|O43561 and related entries	0.887 ± 0.1	0.801 ± 0.12
UniProt O43156	0.983 ± 0.062	0.965 ± 0.039
UniProt O14757	1.01 ± 0.11	1.01 ± 0.058
PFAS (UniProt O15067)	1.03 ± 0.033	1 ± 0.029
TRAPPC3 (UniProt O43617)	0.939 ± 0.076	0.873 ± 0.14
VWA5A (UniProt O00534)	1.22 ± 0.12	1.17 ± 0.098
UniProt O14530 and related entries	0.952 ± 0.037	0.953 ± 0.11
UniProt O43504	0.924 ± 0.099	0.918 ± 0.13
KRIT1 (UniProt O00522)	1.03 ± 0.048	1.09 ± 0.042
UniProt O60353 and related entries	1.03 ± 0.16	0.962 ± 0.1
UniProt O43148 and related entries	1.02 ± 0.061	1.04 ± 0.084
UniProt O14975 and related entries	1.08 ± 0.1	1.11 ± 0.058
RAD51C (UniProt O43502)	1.05 ± 0.11	1.03 ± 0.083
OGT (UniProt O15294)	1.02 ± 0.027	1.02 ± 0.036
M0R2B7 and related entries (UniProt P28340)	1.05 ± 0.055	1.01 ± 0.037
CBX4 (UniProt O00257)	0.948 ± 0.058	0.979 ± 0.1
RNF113A (UniProt O15541)	1.08 ± 0.035	1.098 ± 0.0068
YKT6 (UniProt O15498)	1.01 ± 0.056	1.02 ± 0.071

Reprinted at random: two entries already listed.
Target	NP40-soluble protein abundance (concentration: 0.1mM)	NP40-soluble protein abundance (concentration: 0.5mM)
YKT6 (UniProt O15498)	1.01 ± 0.056	1.02 ± 0.071
RAD51C (UniProt O43502)	1.05 ± 0.11	1.03 ± 0.083

Following part

Target	NP40-soluble protein abundance (concentration: 0.1mM)	NP40-soluble protein abundance (concentration: 0.5mM)
UniProt O60341	1.01 ± 0.026	1.03 ± 0.044
STX6 (UniProt O43752)	0.991 ± 0.043	0.925 ± 0.074
UniProt O15015 and related entries	1.01 ± 0.041	0.978 ± 0.044
SMARCA5 (UniProt O60264)	1.08 ± 0.024	1.18 ± 0.037
SH3BP5 (UniProt O60239)	0.995 ± 0.031	0.986 ± 0.049
UniProt O60343 and related entries	1.04 ± 0.038	1 ± 0.023
LCMT2 (UniProt O60294)	1.05 ± 0.062	0.929 ± 0.094
UniProt O15037	0.952 ± 0.1	0.936 ± 0.1
PIK3R2 (UniProt O00459)	1.1 ± 0.083	1.02 ± 0.12
M0R0C6 and related entries (UniProt Q92945)	0.966 ± 0.029	0.945 ± 0.012
HMGB3 (UniProt O15347)	0.862 ± 0.23	0.823 ± 0.29
TOR1B (UniProt O14657)	0.994 ± 0.069	1 ± 0.081
FOXO3 (UniProt O43524)	0.918 ± 0.065	0.908 ± 0.033
AKAP8 (UniProt O43823)	0.986 ± 0.015	1.06 ± 0.11
UniProt O00422 and related entries	0.93 ± 0.18	1.07 ± 0.22
ARPC1B (UniProt O15143)	0.99 ± 0.049	1.01 ± 0.028
SYNJ2 (UniProt O15056)	1.02 ± 0.025	1.04 ± 0.018
UniProt O60231 and related entries	1.1 ± 0.047	1.1 ± 0.03
M0R2A0 and related entries (UniProt Q5UCC4)	0.971 ± 0.051	0.967 ± 0.041

— the supplement of paper PMC6411743
